Source: the supplement of paper PMC10849652
The other results are listed elsewhere or left out.

Chains of the proteins cited; added tags and fusions are not shown. Lines headed by an entry give the natural chain unless they say otherwise; changes in a name come on top.
UniProt Q9H3N1: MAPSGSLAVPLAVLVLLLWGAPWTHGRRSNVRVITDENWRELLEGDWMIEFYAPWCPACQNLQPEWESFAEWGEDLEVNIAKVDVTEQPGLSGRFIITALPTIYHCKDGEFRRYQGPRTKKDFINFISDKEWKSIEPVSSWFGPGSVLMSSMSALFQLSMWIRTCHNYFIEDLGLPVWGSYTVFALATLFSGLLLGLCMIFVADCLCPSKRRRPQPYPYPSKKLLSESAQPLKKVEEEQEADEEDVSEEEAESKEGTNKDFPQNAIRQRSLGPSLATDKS
UniProt P42167: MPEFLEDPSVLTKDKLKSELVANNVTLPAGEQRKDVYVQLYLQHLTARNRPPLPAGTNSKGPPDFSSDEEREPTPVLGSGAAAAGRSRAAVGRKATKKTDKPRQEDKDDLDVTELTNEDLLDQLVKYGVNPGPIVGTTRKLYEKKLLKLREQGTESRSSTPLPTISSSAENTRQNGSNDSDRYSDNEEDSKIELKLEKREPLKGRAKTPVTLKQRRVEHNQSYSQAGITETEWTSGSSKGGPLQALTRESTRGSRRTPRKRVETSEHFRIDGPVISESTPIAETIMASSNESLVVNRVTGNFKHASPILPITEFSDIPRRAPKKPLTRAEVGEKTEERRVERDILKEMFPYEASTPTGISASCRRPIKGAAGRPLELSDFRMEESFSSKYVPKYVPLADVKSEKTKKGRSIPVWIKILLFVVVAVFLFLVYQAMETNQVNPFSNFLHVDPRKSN
UniProt Q9NWD8: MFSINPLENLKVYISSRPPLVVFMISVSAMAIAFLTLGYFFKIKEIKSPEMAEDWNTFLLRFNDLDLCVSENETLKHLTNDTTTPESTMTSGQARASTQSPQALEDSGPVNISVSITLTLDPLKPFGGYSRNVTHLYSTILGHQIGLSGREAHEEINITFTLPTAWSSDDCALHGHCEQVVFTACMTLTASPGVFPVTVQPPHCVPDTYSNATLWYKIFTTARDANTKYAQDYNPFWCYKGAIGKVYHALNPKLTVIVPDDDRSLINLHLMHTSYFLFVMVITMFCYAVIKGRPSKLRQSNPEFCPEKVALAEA
UniProt Q0P6H9: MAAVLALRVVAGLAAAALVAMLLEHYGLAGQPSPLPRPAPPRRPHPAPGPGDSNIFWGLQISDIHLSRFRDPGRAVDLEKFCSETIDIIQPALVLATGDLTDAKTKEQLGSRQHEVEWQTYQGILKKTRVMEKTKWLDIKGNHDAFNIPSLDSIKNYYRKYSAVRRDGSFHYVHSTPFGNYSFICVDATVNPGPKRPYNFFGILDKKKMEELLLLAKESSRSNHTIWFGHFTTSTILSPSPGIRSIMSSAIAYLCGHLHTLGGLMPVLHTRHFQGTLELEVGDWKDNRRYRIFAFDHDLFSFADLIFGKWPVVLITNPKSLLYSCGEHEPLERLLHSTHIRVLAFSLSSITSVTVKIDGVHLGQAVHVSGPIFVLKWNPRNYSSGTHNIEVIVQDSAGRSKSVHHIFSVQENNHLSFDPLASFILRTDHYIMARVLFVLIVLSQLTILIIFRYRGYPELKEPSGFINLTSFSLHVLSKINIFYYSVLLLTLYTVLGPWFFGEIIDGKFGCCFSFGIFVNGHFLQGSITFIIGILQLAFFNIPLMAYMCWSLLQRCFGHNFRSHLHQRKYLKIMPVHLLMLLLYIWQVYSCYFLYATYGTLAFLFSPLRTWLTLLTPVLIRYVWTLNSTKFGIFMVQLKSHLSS
UniProt Q9H061: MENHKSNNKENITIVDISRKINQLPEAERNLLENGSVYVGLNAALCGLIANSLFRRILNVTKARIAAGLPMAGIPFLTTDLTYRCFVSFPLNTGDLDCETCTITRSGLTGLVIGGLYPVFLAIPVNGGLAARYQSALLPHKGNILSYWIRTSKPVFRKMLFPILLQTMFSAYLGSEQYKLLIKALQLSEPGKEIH
UniProt Q9HD45: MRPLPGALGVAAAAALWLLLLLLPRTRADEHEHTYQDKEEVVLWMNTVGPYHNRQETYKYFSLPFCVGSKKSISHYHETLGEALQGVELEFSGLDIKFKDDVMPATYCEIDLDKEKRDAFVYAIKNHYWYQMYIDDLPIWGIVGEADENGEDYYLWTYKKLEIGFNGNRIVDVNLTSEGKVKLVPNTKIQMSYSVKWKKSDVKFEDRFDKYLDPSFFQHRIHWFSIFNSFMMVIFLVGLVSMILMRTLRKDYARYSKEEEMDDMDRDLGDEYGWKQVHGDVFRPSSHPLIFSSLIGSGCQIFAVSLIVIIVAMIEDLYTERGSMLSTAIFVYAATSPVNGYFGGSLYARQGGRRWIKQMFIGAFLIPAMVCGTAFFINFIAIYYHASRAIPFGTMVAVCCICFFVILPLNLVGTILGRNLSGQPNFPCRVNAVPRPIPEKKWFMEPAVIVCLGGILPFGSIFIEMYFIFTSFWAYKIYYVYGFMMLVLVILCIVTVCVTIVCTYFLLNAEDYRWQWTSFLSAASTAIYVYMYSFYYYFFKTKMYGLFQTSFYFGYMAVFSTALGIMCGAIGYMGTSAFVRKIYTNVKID
UniProt Q9NVH6: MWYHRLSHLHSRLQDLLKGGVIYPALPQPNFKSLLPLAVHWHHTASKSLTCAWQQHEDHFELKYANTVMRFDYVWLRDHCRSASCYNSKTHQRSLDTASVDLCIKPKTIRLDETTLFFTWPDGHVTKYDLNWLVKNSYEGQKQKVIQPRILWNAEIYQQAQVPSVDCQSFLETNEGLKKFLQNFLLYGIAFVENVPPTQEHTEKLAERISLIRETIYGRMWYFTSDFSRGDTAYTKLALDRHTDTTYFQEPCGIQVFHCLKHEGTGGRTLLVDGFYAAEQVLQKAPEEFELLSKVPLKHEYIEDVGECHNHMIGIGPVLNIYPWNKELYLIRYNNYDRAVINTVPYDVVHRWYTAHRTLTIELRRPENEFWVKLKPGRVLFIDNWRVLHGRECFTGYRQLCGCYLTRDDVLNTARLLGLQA
UniProt Q8NBN3: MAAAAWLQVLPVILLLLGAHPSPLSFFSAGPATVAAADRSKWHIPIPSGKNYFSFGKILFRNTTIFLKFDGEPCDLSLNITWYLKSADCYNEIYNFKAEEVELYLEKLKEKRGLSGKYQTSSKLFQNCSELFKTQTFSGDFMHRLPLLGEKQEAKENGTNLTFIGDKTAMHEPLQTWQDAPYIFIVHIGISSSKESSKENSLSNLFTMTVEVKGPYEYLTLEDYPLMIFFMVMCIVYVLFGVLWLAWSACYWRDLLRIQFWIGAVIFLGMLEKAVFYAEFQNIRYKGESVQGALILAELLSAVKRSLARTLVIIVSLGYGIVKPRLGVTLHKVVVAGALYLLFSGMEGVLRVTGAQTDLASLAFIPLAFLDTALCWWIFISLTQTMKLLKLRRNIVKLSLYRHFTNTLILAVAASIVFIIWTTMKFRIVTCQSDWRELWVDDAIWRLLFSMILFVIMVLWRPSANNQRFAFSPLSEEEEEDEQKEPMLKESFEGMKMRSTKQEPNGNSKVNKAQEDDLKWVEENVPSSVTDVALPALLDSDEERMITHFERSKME
UniProt Q15363: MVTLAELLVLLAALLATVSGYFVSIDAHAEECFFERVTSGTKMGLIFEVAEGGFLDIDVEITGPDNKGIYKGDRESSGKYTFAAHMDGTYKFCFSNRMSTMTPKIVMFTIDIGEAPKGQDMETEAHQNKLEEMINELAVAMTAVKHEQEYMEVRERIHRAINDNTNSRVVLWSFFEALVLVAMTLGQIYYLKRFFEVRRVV
UniProt P28289: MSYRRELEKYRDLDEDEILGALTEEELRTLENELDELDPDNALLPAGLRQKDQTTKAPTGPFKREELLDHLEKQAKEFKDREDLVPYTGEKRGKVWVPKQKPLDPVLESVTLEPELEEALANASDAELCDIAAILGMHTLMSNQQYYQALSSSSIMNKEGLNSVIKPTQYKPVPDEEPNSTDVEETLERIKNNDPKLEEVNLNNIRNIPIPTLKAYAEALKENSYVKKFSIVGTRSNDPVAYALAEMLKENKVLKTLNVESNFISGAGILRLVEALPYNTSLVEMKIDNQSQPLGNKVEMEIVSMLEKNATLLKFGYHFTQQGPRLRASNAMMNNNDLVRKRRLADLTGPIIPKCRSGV
UniProt Q9Y4G6: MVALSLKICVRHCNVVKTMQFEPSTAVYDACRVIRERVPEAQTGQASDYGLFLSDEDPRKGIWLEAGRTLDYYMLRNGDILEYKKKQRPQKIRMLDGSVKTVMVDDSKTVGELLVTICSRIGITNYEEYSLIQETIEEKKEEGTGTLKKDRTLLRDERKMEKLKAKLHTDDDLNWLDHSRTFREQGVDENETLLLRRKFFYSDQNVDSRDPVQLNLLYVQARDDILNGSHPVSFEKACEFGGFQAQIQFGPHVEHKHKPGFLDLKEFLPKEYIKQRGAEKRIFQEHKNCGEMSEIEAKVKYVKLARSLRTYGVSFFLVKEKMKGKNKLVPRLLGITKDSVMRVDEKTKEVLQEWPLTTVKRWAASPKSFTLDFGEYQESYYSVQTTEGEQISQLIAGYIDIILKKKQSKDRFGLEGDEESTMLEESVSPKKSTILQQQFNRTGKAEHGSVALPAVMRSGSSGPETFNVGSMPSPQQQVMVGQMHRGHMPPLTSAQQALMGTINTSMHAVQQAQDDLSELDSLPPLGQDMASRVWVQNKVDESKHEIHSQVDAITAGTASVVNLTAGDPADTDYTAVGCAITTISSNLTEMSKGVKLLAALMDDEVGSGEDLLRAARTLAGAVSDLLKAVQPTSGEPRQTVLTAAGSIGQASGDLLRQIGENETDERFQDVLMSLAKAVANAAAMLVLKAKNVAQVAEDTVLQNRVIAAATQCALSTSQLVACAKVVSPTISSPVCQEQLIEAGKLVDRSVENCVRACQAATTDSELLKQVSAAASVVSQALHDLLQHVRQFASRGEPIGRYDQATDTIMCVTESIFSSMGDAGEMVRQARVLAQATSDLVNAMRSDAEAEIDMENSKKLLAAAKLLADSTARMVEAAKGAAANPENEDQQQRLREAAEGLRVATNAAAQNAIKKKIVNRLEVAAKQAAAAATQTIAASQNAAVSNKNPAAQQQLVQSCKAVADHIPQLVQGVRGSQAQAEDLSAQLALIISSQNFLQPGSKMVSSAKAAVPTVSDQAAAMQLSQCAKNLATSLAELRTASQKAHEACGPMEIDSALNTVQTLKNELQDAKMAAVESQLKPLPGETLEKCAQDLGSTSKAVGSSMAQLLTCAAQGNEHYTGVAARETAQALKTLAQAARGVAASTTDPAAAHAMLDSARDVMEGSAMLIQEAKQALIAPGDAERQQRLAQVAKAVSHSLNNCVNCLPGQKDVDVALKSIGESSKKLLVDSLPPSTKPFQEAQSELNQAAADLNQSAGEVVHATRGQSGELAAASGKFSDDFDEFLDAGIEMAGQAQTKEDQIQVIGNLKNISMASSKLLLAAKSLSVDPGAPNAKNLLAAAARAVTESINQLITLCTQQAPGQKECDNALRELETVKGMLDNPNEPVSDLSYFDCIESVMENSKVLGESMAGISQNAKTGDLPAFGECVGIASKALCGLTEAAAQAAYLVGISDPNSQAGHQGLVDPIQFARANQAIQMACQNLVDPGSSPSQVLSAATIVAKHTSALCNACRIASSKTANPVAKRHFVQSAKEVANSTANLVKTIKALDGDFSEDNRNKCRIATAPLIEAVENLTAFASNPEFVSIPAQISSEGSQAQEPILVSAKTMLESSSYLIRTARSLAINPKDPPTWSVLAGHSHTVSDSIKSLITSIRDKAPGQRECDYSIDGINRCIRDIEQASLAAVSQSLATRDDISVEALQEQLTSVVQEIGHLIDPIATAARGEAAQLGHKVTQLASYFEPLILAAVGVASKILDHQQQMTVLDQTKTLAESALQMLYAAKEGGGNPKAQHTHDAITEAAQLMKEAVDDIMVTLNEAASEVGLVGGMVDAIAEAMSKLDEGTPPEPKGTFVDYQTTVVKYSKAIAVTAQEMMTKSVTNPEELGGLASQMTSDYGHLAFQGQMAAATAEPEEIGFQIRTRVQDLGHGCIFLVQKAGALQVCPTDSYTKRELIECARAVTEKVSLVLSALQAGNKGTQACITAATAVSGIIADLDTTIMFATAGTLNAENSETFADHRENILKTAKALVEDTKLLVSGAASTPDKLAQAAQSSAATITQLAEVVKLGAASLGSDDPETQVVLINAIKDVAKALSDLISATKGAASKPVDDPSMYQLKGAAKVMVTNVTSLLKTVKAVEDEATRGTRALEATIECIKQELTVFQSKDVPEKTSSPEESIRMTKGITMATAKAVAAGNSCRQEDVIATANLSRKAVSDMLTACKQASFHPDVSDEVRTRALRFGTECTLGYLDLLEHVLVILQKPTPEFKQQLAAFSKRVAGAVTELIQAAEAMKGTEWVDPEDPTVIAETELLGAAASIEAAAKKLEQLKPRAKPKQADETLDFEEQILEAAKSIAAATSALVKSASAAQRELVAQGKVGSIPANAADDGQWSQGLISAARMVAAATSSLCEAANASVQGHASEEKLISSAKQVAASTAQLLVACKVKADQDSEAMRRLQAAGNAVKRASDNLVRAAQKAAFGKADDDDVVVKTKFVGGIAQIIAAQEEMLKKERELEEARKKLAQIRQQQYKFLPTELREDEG

Columns and labels:
Test in all cases: log2 fold change, soluble protein after heating vs DMSO (PISA); higher = thermal stabilisation; K562 cells, 10 uM, 30 min; active = over 0.2 and 3.5 SD of the protein, either way, in both replicates (recomputed)
[1] = compound: CS(=O)(=O)c1ccc(-c2cnc(N)c(C(=O)Nc3ccccc3)n2)cc1
How it was run: (§1)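 Soluble protein was quantified by TMTpro 16plex LC-MS/MS after channel sums were equalised. It was obtained as the supernatant after 21,000xg for 90 min from pooled aliquots of K562 cells (2×10^6 cells/mL, 10 μM compound, 30 min) heated for 3 min across 48°C-58°C and extracted in PBS with 0.5% NP-40 at 4°C. Thermal stability values are relative to control samples and come from duplicates. They are given as log2 fold changes.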

crizotinib = compound: C[C@@H](Oc1cc(-c2cnn(C3CCNCC3)c2)cnc1N)c1c(Cl)ccc(F)c1Cl [crizotinib]
How it was run: as §1

[2] = compound: C[C@@H]1COCCN1C2=NC(=NC(=C2)C3(CC3)S(=O)(=O)C)C4=C5C=CNC5=CC=C4
How it was run: as §1

[3] = compound: C[C@H](C1=CC=C(C=C1)C(=O)NC2=C3C=CNC3=NC=C2)N
How it was run: as §1

duvelisib = compound: C[C@H](Nc1ncnc2nc[nH]c12)c1cc2cccc(Cl)c2c(=O)n1-c1ccccc1 [duvelisib]
How it was run: as §1

gandotinib = compound: Cc1cc(Nc2cc(CN3CCOCC3)c3nc(C)c(Cc4ccc(Cl)cc4F)n3n2)n[nH]1 [gandotinib]
How it was run: as §1

tozasertib = compound: Cc1cc(Nc2cc(N3CCN(C)CC3)nc(Sc3ccc(NC(=O)C4CC4)cc3)n2)n[nH]1 [tozasertib]
How it was run: as §1

[4] = compound: Cc1cc(SCc2sc(-c3ccc(C(F)(F)F)cc3)nc2C)ccc1OCC(=O)O
How it was run: as §1

doramapimod = compound: Cc1ccc(-n2nc(C(C)(C)C)cc2NC(=O)Nc2ccc(OCCN3CCOCC3)c3ccccc23)cc1 [doramapimod]
How it was run: as §1

ispinesib = compound: Cc1ccc(C(=O)N(CCCN)[C@@H](c2nc3cc(Cl)ccc3c(=O)n2Cc2ccccc2)C(C)C)cc1 [ispinesib]
How it was run: as §1

bafetinib = compound: Cc1ccc(NC(=O)c2ccc(CN3CC[C@H](N(C)C)C3)c(C(F)(F)F)c2)cc1Nc1nccc(-c2cncnc2)n1 [bafetinib]
How it was run: as §1

[5] = compound: Cc1cccc(CC(=O)N2CCc3c2ccc(-c2cn(C)c4ncnc(N)c24)c3F)n1
How it was run: as §1

nilotinib = compound: Cc1cn(-c2cc(NC(=O)c3ccc(C)c(Nc4nccc(-c5cccnc5)n4)c3)cc(C(F)(F)F)c2)cn1 [nilotinib]
How it was run: as §1

[6] = compound: Cc1nc(Nc2n[nH]c3c2CN(C(=O)N[C@H](CN(C)C)c2ccccc2)C3(C)C)c2sccc2n1
How it was run: as §1

dasatinib = compound: Cc1nc(Nc2ncc(C(=O)Nc3c(C)cccc3Cl)s2)cc(N2CCN(CCO)CC2)n1 [dasatinib]
How it was run: as §1

[7] = compound: Cc1ncc(-c2ccnc(Nc3ccc(S(C)(=O)=O)cc3)n2)n1C(C)C
How it was run: as §1

[8] = compound: Cn1cc(-c2ccc3c(c2)CCN3C(=O)Cc2cccc(C(F)(F)F)c2)c2c(N)ncnc21
How it was run: as §1

[9] = compound: Cn1cc(-c2ccc3nnc(C(F)(F)c4ccc5ncccc5c4)n3n2)cn1
How it was run: as §1

tipifarnib = compound: Cn1cncc1[C@@](N)(c1ccc(Cl)cc1)c1ccc2c(c1)c(-c1cccc(Cl)c1)cc(=O)n2C [tipifarnib]
How it was run: as §1

mubritinib = compound: FC(F)(F)c1ccc(/C=C/c2nc(COc3ccc(CCCCn4ccnn4)cc3)co2)cc1 [mubritinib]
How it was run: as §1

Measured: log2 fold change

TMX1 (UniProt Q9H3N1)
inactive: [1] 0.011 | crizotinib 0.032 | [2] 0.013 | [3] 0.012 | duvelisib -0.005 | gandotinib -0.059 | tozasertib 0.006 | [4] -0.022 | doramapimod -0.009 | ispinesib 0.032 | bafetinib -0.014 | [5] -0.07 | nilotinib -0.006 | [6] 0.035 | dasatinib 0.017 | [7] -0.027 | [8] -0.001 | [9] -0.013 | tipifarnib 0.038 | mubritinib 0.003

TMEM245 (UniProt Q9H330)
inactive: [1] 0.004 | crizotinib 0.031 | [2] 0.026 | [3] -0.111 | duvelisib 0.052 | gandotinib -0.066 | tozasertib 0 | [4] -0.055 | doramapimod -0.009 | ispinesib 0.006 | bafetinib -0.057 | [5] -0.091 | nilotinib -0.043 | [6] 0.036 | dasatinib -0.03 | [7] 0.016 | [8] -0.024 | [9] 0.15 | tipifarnib 0.009 | mubritinib 0.016

TMPO isoform 2 (UniProt P42167)
inactive: [1] -0.149 | crizotinib 0.122 | [2] -0.114 | [3] 0.067 | duvelisib 0.031 | gandotinib -0.284 | tozasertib -0.069 | [4] 0.056 | doramapimod -0.098 | ispinesib -0.02 | bafetinib 0.173 | [5] -0.198 | nilotinib -0.019 | [6] -0.009 | dasatinib 0.043 | [7] -0.061 | [8] 0.123 | [9] 0.071 | tipifarnib 0.036 | mubritinib 0.074

TMEM248 (UniProt Q9NWD8)
inactive: [1] -0.045 | crizotinib 0.063 | [2] -0.031 | [3] 0.059 | duvelisib 0.159 | gandotinib 0.001 | tozasertib 0.014 | [4] -0.14 | doramapimod 0.044 | ispinesib -0.051 | bafetinib -0.02 | [5] -0.082 | nilotinib -0.126 | [6] -0.007 | dasatinib 0.119 | [7] 0.067 | [8] 0.047 | [9] -0.021 | tipifarnib -0.052 | mubritinib 0.069

TLE4 isoform 3 (UniProt Q04727)
inactive: [1] -0.039 | crizotinib 0.058 | [2] 0.002 | [3] -0.045 | duvelisib 0.069 | gandotinib 0.015 | tozasertib -0.007 | [4] -0.005 | doramapimod -0.026 | ispinesib 0.045 | bafetinib -0.01 | [5] -0.005 | nilotinib -0.003 | [6] 0.003 | dasatinib -0.036 | [7] -0.038 | [8] 0.033 | [9] 0.045 | tipifarnib 0.007 | mubritinib 0.031

TMEM165 (UniProt Q9HC07)
inactive: [1] 0.05 | crizotinib 0.038 | [2] -0.052 | [3] 0.019 | duvelisib 0.027 | gandotinib 0.032 | tozasertib -0.056 | [4] -0.005 | doramapimod 0.047 | ispinesib 0.02 | bafetinib 0.074 | [5] -0.115 | nilotinib 0.056 | [6] -0.038 | dasatinib 0.084 | [7] -0.023 | [8] 0.06 | [9] -0.044 | tipifarnib -0.022 | mubritinib 0.013

Random excerpt: two entries already listed, in no set order.
TMEM245 (UniProt Q9H330)
inactive: [1] 0.004 | crizotinib 0.031 | [2] 0.026 | [3] -0.111 | duvelisib 0.052 | gandotinib -0.066 | tozasertib 0 | [4] -0.055 | doramapimod -0.009 | ispinesib 0.006 | bafetinib -0.057 | [5] -0.091 | nilotinib -0.043 | [6] 0.036 | dasatinib -0.03 | [7] 0.016 | [8] -0.024 | [9] 0.15 | tipifarnib 0.009 | mubritinib 0.016

TMEM248 (UniProt Q9NWD8)
inactive: [1] -0.045 | crizotinib 0.063 | [2] -0.031 | [3] 0.059 | duvelisib 0.159 | gandotinib 0.001 | tozasertib 0.014 | [4] -0.14 | doramapimod 0.044 | ispinesib -0.051 | bafetinib -0.02 | [5] -0.082 | nilotinib -0.126 | [6] -0.007 | dasatinib 0.119 | [7] 0.067 | [8] 0.047 | [9] -0.021 | tipifarnib -0.052 | mubritinib 0.069

Later entries.

TMEM62 (UniProt Q0P6H9)
inactive: [1] 0.114 | crizotinib 0.067 | [2] 0.087 | [3] -0.027 | duvelisib 0.067 | gandotinib -0.012 | tozasertib -0.032 | [4] 0.091 | doramapimod 0.031 | ispinesib 0.041 | bafetinib 0.211 | [5] -0.014 | nilotinib 0.003 | [6] 0.027 | dasatinib -0.131 | [7] 0.029 | [8] 0.053 | [9] -0.019 | tipifarnib -0.031 | mubritinib -0.08

TMEM126A (UniProt Q9H061)
inactive: [1] -0.016 | crizotinib 0.059 | [2] 0.101 | [3] -0.064 | duvelisib 0.108 | gandotinib 0.073 | tozasertib -0.03 | [4] -0.101 | doramapimod -0.01 | ispinesib -0.058 | bafetinib -0.05 | [5] -0.008 | nilotinib -0.019 | [6] -0.014 | dasatinib 0.004 | [7] -0.025 | [8] 0.094 | [9] 0.089 | tipifarnib 0.069 | mubritinib 0.052

TM9SF3 (UniProt Q9HD45)
inactive: [1] 0.037 | crizotinib 0.072 | [2] 0.043 | [3] -0.152 | duvelisib -0.02 | gandotinib -0.016 | tozasertib -0.036 | [4] 0.056 | doramapimod -0.007 | ispinesib 0.162 | bafetinib 0.006 | [5] 0.032 | nilotinib -0.004 | [6] 0.019 | dasatinib 0.006 | [7] -0.018 | [8] 0.058 | [9] -0.003 | tipifarnib -0.067 | mubritinib 0.044

TMLHE isoform 8 (UniProt Q9NVH6)
inactive: [1] 0.033 | crizotinib 0.007 | [2] -0.021 | [3] -0.035 | duvelisib 0.088 | gandotinib 0.003 | tozasertib 0.033 | [4] 0.037 | doramapimod -0.001 | ispinesib -0.042 | bafetinib -0.038 | [5] -0.05 | nilotinib -0.015 | [6] 0.074 | dasatinib -0.065 | [7] 0.023 | [8] 0.147 | [9] -0.006 | tipifarnib 0.069 | mubritinib 0.089

TMEM87A (UniProt Q8NBN3)
inactive: [1] 0.028 | crizotinib -0.198 | [2] 0.005 | [3] -0.005 | duvelisib 0.064 | gandotinib 0.008 | tozasertib -0.014 | [4] -0.062 | doramapimod -0.023 | ispinesib -0.098 | bafetinib -0.052 | [5] -0.05 | nilotinib 0.018 | [6] 0.005 | dasatinib 0.067 | [7] 0.002 | [8] 0.012 | [9] 0.013 | tipifarnib 0.046 | mubritinib 0.079

TMED2 (UniProt Q15363)
inactive: [1] 0.015 | crizotinib 0.02 | [2] 0.045 | [3] -0.007 | duvelisib 0.01 | gandotinib -0.006 | tozasertib -0.027 | [4] 0.008 | doramapimod 0.058 | ispinesib 0.002 | bafetinib -0.025 | [5] 0.006 | nilotinib -0.007 | [6] 0.005 | dasatinib 0.062 | [7] 0.02 | [8] 0.062 | [9] 0 | tipifarnib -0.022 | mubritinib 0.033

TMOD1 (UniProt P28289)
inactive: [1] -0.01 | crizotinib -0.109 | [2] -0.046 | [3] 0.199 | duvelisib -0.171 | gandotinib 0.062 | tozasertib 0.014 | [4] 0.029 | doramapimod -0.006 | ispinesib -0.072 | bafetinib 0 | [5] -0.033 | nilotinib -0.032 | [6] -0.176 | dasatinib 0.007 | [7] 0.047 | [8] -0.155 | [9] -0.017 | tipifarnib -0.098 | mubritinib -0.068

TLN2 (UniProt Q9Y4G6)
inactive: [1] -0.029 | crizotinib -0.002 | [2] 0.044 | [3] -0.008 | duvelisib -0.071 | gandotinib 0.02 | tozasertib 0.028 | [4] 0.043 | doramapimod -0.008 | ispinesib -0.117 | bafetinib 0.164 | [5] 0.024 | nilotinib -0.055 | [6] 0.045 | dasatinib 0.002 | [7] -0.042 | [8] 0.046 | [9] 0.003 | tipifarnib -0.039 | mubritinib -0.062

TMED9 (UniProt Q9BVK6)
inactive: [1] -0.006 | crizotinib 0.045 | [2] 0.012 | [3] -0.069 | duvelisib 0.01 | gandotinib 0.023 | tozasertib -0.006 | [4] 0.026 | doramapimod 0.025 | ispinesib 0.003 | bafetinib -0.005 | [5] -0.082 | nilotinib -0.021 | [6] -0.001 | dasatinib 0.037 | [7] 0.034 | [8] 0.021 | [9] 0.025 | tipifarnib 0.012 | mubritinib 0.043

TMPO (UniProt P42167)
inactive: [1] 0.011 | crizotinib -0.032 | [2] 0.065 | [3] -0.018 | duvelisib 0.028 | gandotinib -0.084 | tozasertib 0.01 | [4] 0.021 | doramapimod -0.032 | ispinesib 0.001 | bafetinib -0.04 | [5] 0 | nilotinib 0.011 | [6] -0.035 | dasatinib -0.014 | [7] 0.045 | [8] 0.137 | [9] 0.037 | tipifarnib 0.004 | mubritinib -0.038
